Results are given in words; binding and its absence hold for the method and conditions named. Binding seen in cells or lysates may run through a third protein. These calls come from enrichment with a bait or labelling near it, and not all partners need be listed.
B1: COPB2 (protein, UniProt P35606 1-906)
chain: MPLRLDIKRKLTARSDRVKSVDLHPTEPWMLASLYNGSVCVWNHETQTLVKTFEVCDLPVRAAKFVARKNWVVTGADDMQIRVFNYNTLERVHMFEAHSDYIRCIAVHPTQPFILTSSDDMLIKLWDWDKKWSCSQVFEGHTHYVMQIVINPKDNNQFASASLDRTIKVWQLGSSSPNFTLEGHEKGVNCIDYYSGGDKPYLISGADDRLVKIWDYQNKTCVQTLEGHAQNVSCASFHPELPIIITGSEDGTVRIWHSSTYRLESTLNYGMERVWCVASLRGSNNVALGYDEGSIIVKLGREEPAMSMDANGKIIWAKHSEVQQANLKAMGDAEIKDGERLPLAVKDMGSCEIYPQTIQHNPNGRFVVVCGDGEYIIYTAMALRNKSFGSAQEFAWAHDSSEYAIRESNSIVKIFKNFKEKKSFKPDFGAESIYGGFLLGVRSVNGLAFYDWDNTELIRRIEIQPKHIFWSDSGELVCIATEESFFILKYLSEKVLAAQETHEGVTEDGIEDAFEVLGEIQEIVKTGLWVGDCFIYTSSVNRLNYYVGGEIVTIAHLDRTMYLLGYIPKDNRLYLGDKELNIISYSLLVSVLEYQTAVMRRDFSMADKVLPTIPKEQRTRVAHFLEKQGFKQQALTVSTDPEHRFELALQLGELKIAYQLAVEAESEQKWKQLAELAISKCQFGLAQECLHHAQDYGGLLLLATASGNANMVNKLAEGAERDGKNNVAFMSYFLQGKVDACLELLIRTGRLPEAAFLARTYLPSQVSRVVKLWRENLSKVNQKAAESLADPTEYENLFPGLKEAFVVEEWVKETHADLWPAKQYPLVTPNEERNVMEEGKDFQPSRSTAQQELDGKPASPTPVIVASHTANKEEKSLLELEVDLDNLELEDIDTTDINLDEDILDD
B2: COPG2 (protein, UniProt Q9UBF2 1-871)
chain: MIKKFDKKDEESGSGSNPFQHLEKSAVLQEARIFNETPINPRRCLHILTKILYLLNQGEHFGTTEATEAFFAMTRLFQSNDQTLRRMCYLTIKEMATISEDVIIVTSSLTKDMTGKEDVYRGPAIRALCRITDGTMLQAIERYMKQAIVDKVSSVSSSALVSSLHMMKISYDVVKRWINEAQEAASSDNIMVQYHALGVLYHLRKNDRLAVSKMLNKFTKSGLKSQFAYCMLIRIASRLLKETEDGHESPLFDFIESCLRNKHEMVIYEAASAIIHLPNCTARELAPAVSVLQLFCSSPKPALRYAAVRTLNKVAMKHPSAVTACNLDLENLITDSNRSIATLAITTLLKTGSESSVDRLMKQISSFVSEISDEFKVVVVQAISALCQKYPRKHSVMMTFLSNMLRDDGGFEYKRAIVDCIISIVEENPESKEAGLAHLCEFIEDCEHTVLATKILHLLGKEGPRTPVPSKYIRFIFNRVVLENEAVRAAAVSALAKFGAQNESLLPSILVLLQRCMMDTDDEVRDRATFYLNVLQQRQMALNATYIFNGLTVSVPGMEKALHQYTLEPSEKPFDMKSIPLAMAPVFEQKAEITLVATKPEKLAPSRQDIFQEQLAAIPEFLNIGPLFKSSEPVQLTEAETEYFVRCIKHMFTNHIVFQFDCTNTLNDQLLEKVTVQMEPSDSYEVLSCIPAPSLPYNQPGICYTLVRLPDDDPTAVAGSFSCTMKFTVRDCDPNTGVPDEDGYDDEYVLEDLEVTVSDHIQKVLKPNFAAAWEEVGDTFEKEETFALSSTKTLEEAVNNIITFLGMQPCERSDKVPENKNSHSLYLAGIFRGGYDLLVRSRLALADGVTMQVTVRSKERTPVDVILASVG
B3: COPD/ARCN1 (protein, UniProt P48444 1-511)
chain: MVLLAAAVCTKAGKAIVSRQFVEMTRTRIEGLLAAFPKLMNTGKQHTFVETESVRYVYQPMEKLYMVLITTKNSNILEDLETLRLFSRVIPEYCRALEENEISEHCFDLIFAFDEIVALGYRENVNLAQIRTFTEMDSHEEKVFRAVRETQEREAKAEMRRKAKELQQARRDAERQGKKAPGFGGFGSSAVSGGSTAAMITETIIETDKPKVAPAPARPSGPSKALKLGAKGKEVDNFVDKLKSEGETIMSSSMGKRTSEATKMHAPPINMESVHMKIEEKITLTCGRDGGLQNMELHGMIMLRISDDKYGRIRLHVENEDKKGVQLQTHPNVDKKLFTAESLIGLKNPEKSFPVNSDVGVLKWRLQTTEESFIPLTINCWPSESGNGCDVNIEYELQEDNLELNDVVITIPLPSGVGAPVIGEIDGEYRHDSRRNTLEWCLPVIDAKNKSGSLEFSIAGQPNDFFPVQVSFVSKKNYCNIQVTKVTQVDGNSPVRFSTETTFLVDKYEIL

Chains of the proteins cited; added tags and fusions are not shown.
UniProt P84077: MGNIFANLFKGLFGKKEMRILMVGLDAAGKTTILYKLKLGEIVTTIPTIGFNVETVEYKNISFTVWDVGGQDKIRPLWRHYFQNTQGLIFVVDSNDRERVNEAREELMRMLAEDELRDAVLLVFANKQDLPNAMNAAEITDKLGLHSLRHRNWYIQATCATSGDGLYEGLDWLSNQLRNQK
UniProt Q9Y678: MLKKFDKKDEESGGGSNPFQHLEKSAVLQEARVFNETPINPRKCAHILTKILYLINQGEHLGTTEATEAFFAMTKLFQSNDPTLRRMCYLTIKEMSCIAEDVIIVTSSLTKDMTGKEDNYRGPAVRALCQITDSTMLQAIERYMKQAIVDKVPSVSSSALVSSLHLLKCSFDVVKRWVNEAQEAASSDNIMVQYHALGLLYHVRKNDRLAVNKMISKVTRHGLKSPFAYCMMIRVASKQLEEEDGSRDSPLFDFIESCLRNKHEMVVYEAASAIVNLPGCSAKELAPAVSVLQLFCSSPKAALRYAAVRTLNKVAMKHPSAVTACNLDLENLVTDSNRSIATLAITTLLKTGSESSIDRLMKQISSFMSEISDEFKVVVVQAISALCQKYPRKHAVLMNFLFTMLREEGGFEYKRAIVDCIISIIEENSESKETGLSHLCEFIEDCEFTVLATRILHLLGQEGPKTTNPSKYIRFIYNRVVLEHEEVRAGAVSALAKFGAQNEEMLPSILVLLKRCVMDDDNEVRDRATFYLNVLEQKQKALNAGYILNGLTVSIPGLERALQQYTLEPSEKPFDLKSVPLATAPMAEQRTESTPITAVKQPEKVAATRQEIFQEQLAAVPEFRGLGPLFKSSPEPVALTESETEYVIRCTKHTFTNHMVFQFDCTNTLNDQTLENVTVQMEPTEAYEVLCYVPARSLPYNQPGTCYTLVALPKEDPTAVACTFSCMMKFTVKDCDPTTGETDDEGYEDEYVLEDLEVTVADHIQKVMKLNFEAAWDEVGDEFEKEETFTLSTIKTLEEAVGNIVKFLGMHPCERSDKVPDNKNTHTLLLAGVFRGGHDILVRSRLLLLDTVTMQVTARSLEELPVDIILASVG
UniProt Q99627: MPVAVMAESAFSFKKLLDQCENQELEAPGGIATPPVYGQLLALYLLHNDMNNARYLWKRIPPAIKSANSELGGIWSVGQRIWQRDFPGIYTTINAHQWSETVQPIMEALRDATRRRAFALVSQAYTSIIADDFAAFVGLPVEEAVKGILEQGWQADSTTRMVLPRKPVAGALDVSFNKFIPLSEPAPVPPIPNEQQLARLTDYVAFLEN
UniProt P53621: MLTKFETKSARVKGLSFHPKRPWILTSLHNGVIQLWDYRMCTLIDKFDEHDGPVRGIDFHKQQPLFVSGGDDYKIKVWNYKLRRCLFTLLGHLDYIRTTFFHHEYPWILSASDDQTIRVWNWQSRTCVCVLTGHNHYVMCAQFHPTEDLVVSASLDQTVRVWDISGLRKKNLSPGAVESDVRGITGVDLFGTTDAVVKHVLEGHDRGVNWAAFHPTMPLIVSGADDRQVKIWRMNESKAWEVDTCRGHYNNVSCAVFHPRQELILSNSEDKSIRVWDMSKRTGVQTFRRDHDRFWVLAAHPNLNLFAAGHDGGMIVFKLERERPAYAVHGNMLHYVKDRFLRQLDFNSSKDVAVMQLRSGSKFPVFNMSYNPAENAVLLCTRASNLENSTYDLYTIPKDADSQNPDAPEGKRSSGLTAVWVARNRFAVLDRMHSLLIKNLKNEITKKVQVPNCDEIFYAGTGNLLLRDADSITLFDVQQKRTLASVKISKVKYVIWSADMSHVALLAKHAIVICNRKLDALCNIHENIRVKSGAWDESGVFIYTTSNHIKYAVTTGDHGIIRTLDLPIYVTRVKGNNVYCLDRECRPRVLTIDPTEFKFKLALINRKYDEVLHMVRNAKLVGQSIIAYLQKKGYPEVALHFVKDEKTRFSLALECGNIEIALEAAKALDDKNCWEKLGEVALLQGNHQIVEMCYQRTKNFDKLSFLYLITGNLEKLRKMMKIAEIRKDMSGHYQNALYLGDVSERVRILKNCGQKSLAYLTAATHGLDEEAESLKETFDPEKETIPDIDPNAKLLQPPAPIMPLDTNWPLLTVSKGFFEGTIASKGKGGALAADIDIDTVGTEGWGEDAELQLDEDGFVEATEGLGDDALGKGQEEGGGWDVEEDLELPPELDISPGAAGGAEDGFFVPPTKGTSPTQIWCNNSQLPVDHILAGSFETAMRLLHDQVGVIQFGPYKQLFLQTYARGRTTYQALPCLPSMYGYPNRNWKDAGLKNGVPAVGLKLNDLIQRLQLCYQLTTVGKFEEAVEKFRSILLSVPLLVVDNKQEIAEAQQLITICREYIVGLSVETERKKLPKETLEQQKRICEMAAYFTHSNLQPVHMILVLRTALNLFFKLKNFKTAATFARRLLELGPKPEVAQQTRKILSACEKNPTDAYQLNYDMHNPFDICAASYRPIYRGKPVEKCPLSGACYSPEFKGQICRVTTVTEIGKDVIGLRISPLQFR
UniProt P53618: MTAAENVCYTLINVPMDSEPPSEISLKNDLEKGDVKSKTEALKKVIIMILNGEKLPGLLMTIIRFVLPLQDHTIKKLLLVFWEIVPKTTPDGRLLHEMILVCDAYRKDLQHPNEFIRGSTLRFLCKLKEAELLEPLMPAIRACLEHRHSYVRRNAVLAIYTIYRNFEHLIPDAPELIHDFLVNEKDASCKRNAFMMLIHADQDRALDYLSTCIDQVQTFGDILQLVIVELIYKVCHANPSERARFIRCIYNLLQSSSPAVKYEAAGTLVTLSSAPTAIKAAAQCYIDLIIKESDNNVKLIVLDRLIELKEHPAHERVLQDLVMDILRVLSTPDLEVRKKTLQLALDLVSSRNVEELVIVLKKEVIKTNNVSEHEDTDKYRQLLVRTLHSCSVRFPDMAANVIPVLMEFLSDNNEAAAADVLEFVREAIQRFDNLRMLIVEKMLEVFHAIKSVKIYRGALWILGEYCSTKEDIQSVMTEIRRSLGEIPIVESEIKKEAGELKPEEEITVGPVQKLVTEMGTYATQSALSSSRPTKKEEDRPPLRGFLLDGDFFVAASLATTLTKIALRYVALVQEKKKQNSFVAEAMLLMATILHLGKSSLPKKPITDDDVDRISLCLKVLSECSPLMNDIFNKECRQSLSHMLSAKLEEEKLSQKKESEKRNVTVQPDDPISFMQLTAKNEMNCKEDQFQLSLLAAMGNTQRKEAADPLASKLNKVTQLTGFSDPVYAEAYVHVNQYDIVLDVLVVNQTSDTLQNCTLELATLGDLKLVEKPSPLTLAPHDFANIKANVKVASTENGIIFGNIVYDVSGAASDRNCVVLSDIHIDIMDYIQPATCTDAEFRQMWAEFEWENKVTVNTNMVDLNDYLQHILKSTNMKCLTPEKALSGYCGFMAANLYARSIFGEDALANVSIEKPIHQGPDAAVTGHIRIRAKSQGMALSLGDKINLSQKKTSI

Biological target: ARF1 WT (pCMV6-hARF1-myc-FLAG) (human) (UniProt P84077)
Assay: affinity purification with mass spectrometry

| Molecule | binding |
| --- | --- |
| COPG1 (from UniProt Q9Y678 1-874) | binds |
| COPS8 (from UniProt Q99627 1-209) | binds |
| coatomer protein subunit alpha (COPA) (from UniProt P53621 1-1224) | binds |
| COPB1 (from UniProt P53618 1-953) | binds |
| B1 | binds |
| B2 | binds |
| B3 | binds |
